Assay results taken from PubChem BioAssay AID330 (DTP/NCI, 2004).
Inconclusive results and toxic doses are left out. How the source made its calls: active means survival T/C of 150% or more; inactive means T/C below 125% in these data.

Test system: P388 leukemia ip, CD2F1 mice, survival T/C
Assay: NCI In Vivo Anticancer Drug Screen. Data for tumor model P388 Leukemia (intraperitoneal) in CD2F1 (CDF1) mice
Details: endpoint: median survival time, schedule: Q01DX005 (ip), vehicle: Klucel (hydroxypropylcellulose) (HPC), higher = longer survival
In short: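 Mice carrying the transplanted tumor received test compound or vehicle. Survival was recorded in each group, and the value is the treated-group measurement divided by that of the vehicle-treated control group.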

Measured: T/C

CCCC(NC(=O)OC(C)(C)C)C(=O)O (stereo not drawn)
inactive: dose: 50.0 mg/kg/injection 104 % of control | dose: 100.0 mg/kg/injection 93 % of control | dose: 200.0 mg/kg/injection 95 % of control
